Test results as given in the supplement of paper PMC12819154, “High-throughput peptide-centric local stability assay extends protein–ligand identification to membrane proteins, tissues and bacteria” (Nature Structural & Molecular Biology, 2025).
Some of the results follow. Small differences around the control level are noise.

Sequences of proteins named here, by UniProt entry; tags and fusion partners are left off. A change or cut given only in a name is not applied to a line headed by its entry.
UniProt Q8WUR0: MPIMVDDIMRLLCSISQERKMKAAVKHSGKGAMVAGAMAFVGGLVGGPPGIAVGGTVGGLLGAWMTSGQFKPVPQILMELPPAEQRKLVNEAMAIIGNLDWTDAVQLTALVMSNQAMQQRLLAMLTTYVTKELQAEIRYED
UniProt Q8VE95: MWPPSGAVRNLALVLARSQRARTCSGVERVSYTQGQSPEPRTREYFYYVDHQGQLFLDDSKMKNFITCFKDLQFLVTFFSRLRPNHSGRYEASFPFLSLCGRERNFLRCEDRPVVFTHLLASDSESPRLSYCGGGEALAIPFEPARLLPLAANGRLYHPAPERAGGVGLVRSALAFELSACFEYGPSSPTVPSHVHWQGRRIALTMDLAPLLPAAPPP
UniProt Q99J56: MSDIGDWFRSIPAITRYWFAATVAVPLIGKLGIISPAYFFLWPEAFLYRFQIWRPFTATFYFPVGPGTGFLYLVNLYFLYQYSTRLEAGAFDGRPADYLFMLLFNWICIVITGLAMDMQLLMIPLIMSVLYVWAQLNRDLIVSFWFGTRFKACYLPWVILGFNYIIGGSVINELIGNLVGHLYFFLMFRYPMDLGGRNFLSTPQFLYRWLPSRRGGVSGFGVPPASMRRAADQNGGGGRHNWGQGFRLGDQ
UniProt Q922R8: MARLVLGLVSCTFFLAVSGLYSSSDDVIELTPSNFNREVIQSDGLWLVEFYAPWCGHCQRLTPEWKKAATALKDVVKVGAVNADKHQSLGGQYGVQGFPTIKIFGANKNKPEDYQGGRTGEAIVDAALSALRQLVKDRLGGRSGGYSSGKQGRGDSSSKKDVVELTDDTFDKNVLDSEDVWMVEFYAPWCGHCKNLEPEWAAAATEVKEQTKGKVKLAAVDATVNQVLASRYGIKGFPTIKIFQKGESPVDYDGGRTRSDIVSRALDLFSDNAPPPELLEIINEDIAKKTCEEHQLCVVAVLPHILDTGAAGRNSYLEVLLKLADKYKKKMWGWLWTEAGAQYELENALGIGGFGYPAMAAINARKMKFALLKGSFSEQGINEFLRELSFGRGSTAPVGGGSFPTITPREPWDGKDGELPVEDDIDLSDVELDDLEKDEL
UniProt Q8VD57: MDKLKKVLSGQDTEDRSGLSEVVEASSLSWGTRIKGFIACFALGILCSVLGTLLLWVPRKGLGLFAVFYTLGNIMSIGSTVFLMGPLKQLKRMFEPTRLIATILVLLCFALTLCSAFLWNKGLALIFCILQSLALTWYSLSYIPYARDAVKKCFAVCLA
UniProt Q91VC7: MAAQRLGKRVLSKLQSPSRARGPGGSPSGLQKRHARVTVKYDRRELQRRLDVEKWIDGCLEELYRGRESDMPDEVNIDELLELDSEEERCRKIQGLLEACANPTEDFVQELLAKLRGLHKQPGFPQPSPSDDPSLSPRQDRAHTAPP
UniProt Q921C5, whole entry: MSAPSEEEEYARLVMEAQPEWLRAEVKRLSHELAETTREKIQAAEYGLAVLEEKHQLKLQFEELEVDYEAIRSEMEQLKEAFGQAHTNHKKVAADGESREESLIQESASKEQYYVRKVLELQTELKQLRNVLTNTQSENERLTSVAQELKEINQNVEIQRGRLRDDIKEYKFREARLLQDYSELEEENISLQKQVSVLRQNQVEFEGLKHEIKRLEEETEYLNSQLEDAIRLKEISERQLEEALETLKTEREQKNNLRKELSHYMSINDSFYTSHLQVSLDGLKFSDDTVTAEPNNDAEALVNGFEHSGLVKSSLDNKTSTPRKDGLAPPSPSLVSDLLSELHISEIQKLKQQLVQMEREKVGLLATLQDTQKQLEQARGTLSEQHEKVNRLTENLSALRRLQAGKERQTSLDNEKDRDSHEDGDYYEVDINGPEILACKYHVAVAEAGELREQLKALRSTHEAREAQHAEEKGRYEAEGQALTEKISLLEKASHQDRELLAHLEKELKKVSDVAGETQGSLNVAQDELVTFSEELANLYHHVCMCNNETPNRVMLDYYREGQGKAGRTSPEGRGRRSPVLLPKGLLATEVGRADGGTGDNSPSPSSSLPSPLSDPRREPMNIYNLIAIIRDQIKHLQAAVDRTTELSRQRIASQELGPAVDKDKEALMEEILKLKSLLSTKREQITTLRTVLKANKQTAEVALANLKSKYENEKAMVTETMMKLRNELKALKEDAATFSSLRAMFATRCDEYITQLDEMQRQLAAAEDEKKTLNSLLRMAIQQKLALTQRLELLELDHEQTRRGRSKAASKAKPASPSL
UniProt Q8VCX5: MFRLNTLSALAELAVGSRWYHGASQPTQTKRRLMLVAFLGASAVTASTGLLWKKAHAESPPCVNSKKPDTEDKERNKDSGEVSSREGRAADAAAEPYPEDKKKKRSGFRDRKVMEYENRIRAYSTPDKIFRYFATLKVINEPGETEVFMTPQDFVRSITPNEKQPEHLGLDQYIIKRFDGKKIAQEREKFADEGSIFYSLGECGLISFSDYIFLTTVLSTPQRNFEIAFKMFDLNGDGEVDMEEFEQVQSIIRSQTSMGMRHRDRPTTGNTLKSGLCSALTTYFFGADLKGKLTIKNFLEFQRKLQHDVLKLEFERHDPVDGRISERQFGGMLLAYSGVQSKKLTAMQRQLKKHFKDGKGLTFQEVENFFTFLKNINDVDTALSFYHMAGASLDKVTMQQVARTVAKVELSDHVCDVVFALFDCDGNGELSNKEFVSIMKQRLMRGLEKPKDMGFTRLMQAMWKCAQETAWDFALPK
UniProt Q8VDT9: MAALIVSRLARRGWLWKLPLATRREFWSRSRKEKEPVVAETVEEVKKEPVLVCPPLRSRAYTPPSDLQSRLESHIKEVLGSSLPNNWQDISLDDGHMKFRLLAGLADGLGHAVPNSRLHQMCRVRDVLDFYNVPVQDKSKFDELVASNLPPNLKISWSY
UniProt Q924Z4: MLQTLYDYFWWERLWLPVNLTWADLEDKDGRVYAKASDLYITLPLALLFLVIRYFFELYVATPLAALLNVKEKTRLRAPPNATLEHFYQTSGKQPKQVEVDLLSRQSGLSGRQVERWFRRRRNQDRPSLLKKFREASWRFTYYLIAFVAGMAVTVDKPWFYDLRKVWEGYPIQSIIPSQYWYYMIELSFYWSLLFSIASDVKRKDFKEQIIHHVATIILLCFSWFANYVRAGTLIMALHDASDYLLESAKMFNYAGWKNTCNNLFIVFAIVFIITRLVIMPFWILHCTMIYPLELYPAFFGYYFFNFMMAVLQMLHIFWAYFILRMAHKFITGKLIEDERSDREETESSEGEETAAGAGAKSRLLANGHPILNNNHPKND
UniProt Q91YT7: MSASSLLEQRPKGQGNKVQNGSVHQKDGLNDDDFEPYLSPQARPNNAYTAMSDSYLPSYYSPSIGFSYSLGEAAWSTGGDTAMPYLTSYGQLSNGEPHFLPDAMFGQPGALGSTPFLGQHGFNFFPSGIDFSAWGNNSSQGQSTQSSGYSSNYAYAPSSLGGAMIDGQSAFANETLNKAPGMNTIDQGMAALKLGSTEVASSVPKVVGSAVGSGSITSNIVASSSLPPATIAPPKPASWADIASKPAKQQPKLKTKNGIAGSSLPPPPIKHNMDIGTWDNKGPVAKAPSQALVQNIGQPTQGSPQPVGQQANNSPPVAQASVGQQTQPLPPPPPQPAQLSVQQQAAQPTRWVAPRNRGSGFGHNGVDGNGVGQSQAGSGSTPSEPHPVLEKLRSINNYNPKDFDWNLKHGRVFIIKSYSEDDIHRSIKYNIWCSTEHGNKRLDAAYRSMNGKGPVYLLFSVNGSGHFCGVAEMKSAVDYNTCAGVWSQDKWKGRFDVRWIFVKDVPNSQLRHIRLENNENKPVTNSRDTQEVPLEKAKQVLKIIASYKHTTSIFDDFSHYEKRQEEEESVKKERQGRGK
UniProt Q91V76: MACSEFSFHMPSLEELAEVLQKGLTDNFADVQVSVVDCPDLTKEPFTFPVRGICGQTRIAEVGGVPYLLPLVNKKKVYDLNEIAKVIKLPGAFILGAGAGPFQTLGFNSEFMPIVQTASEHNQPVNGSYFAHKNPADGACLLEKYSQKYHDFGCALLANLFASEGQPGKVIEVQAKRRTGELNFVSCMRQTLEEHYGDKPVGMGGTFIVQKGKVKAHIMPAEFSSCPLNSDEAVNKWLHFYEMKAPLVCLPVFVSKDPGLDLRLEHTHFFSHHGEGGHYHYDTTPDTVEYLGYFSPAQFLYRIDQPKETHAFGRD
UniProt Q91XF0: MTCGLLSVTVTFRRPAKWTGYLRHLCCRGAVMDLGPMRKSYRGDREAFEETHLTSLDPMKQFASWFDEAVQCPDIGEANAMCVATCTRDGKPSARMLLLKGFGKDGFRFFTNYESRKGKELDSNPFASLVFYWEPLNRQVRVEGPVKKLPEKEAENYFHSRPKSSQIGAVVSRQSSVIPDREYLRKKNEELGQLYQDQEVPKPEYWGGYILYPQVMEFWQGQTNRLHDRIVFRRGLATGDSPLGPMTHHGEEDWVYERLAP
UniProt Q8VDC1: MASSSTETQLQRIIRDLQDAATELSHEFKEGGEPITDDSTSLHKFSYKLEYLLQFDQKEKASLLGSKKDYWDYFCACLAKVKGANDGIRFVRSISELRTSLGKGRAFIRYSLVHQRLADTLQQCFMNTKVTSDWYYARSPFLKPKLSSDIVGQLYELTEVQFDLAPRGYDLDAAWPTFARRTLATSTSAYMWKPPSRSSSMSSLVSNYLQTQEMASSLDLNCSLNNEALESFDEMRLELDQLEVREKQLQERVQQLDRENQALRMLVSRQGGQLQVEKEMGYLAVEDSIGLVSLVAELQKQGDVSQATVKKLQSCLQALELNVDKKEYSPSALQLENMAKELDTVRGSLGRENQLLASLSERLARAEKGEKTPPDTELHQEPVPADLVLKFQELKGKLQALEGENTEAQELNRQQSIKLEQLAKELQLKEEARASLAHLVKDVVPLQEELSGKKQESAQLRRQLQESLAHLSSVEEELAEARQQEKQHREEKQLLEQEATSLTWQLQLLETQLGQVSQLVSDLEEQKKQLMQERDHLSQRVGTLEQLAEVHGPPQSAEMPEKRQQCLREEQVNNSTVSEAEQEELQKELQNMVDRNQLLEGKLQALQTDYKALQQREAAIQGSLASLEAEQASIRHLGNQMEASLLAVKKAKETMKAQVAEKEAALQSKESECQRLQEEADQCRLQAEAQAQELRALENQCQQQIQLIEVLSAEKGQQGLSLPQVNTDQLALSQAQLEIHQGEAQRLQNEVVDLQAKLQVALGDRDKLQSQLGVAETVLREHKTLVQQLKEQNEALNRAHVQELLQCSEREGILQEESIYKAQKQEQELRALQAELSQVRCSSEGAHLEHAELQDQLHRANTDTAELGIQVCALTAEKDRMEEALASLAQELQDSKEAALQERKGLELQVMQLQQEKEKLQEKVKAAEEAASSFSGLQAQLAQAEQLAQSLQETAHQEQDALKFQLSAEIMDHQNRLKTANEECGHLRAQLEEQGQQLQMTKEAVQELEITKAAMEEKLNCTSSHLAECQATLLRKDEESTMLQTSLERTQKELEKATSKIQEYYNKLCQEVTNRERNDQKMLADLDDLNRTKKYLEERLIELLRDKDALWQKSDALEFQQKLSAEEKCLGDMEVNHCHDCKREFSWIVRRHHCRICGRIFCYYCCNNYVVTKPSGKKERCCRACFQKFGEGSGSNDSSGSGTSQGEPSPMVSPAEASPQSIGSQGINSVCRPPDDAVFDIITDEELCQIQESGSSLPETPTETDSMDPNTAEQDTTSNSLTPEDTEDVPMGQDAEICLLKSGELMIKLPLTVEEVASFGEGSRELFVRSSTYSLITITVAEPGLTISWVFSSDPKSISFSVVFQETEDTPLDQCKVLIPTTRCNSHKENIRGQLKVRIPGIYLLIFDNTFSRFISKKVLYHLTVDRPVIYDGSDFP
UniProt Q91WE2: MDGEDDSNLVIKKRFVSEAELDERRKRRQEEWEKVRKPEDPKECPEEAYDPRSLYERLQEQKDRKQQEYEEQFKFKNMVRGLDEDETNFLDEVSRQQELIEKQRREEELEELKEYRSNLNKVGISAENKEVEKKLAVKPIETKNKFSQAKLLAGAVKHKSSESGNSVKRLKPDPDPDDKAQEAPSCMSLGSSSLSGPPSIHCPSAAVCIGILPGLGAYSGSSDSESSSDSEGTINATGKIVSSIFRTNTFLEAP
UniProt Q91YN9: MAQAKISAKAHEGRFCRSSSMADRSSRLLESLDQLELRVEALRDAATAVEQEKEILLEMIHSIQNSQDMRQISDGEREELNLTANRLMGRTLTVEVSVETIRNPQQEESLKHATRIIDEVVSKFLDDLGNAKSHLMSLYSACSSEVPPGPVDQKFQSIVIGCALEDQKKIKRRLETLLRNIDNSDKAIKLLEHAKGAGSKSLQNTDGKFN
UniProt Q91V64: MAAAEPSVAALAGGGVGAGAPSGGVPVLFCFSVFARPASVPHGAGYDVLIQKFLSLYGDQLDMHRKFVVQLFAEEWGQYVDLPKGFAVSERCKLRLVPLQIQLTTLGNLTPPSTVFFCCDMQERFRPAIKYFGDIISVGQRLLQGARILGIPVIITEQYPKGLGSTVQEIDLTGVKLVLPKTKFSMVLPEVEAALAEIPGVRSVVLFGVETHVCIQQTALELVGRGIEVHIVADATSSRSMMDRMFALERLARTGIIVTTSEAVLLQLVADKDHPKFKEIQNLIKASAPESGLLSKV

compound: CN[C@@H]1C[C@H]2O[C@@](C)([C@@H]1OC)n1c3ccccc3c3c4c(c5c6ccccc6n2c5c31)C(=O)NC4 [staurosporine]; experiment: log2 fold change of pooled soluble protein (PISA), ligand vs vehicle (log2 ratio); higher = more thermally stabilized; settings: ligand concentration: 20 uM; assay format: PISA pool 52.9/55.5/58.6 C

Row | Target | log2 fold change of pooled soluble protein
1 | UniProt Q91W18 | -0.128
2 | UniProt Q8VEK3 | -0.121
3 | UniProt Q921M7 | 0.259
4 | UniProt Q91YP2 | 0.0498
5 | UniProt Q923Z3 | -0.0569
6 | UniProt Q91W52 | -0.328
7 | UniProt Q8WUR0 | -0.0646
8 | UniProt Q8VE95 | -0.0471
9 | UniProt Q99J56 | -0.21
10 | UniProt Q91XD4 | -0.122
11 | UniProt Q922R8 | -0.303
12 | UniProt Q91Y97 | 0.102
13 | UniProt Q91W10 | 0.263
14 | UniProt Q8VD57 | -0.0202
15 | UniProt Q91WS4 | -0.364
16 | UniProt Q91VC7 | -0.014
17 | UniProt Q8VHR5 | 0.0999
18 | UniProt Q921C5 | -0.0319
19 | UniProt Q8VCX5 | -0.14

Row | Target | log2 fold change of pooled soluble protein
20 | UniProt Q91XE8 | -0.0687
21 | UniProt Q8VDT9 | -0.128
22 | UniProt Q924Z4 | -0.251
23 | UniProt Q91XE4 | -0.00077
24 | UniProt Q91YT7 | 0.0779
25 | UniProt Q91V76 | -0.0643
26 | UniProt Q91XF0 | 0.0542
27 | UniProt Q8VDC1 | -0.0808
28 | UniProt Q99J45 | 0.114
29 | UniProt Q91WE2 | 0.214
30 | UniProt Q8VD66 | 0.0944
31 | UniProt Q91WK1 | -0.0581
32 | UniProt Q925J9 | -0.0453
33 | UniProt Q91YN9 | 0.124
34 | UniProt Q91V64 | -0.174
35 | UniProt Q921Z5 | -0.202
36 | UniProt Q8VHK9 | 0.0699
37 | UniProt Q920F6 | -0.0861

Another view of some results above:
Row	Target	log2 fold change of pooled soluble protein
30	UniProt Q8VD66	0.0944
31	UniProt Q91WK1	-0.0581
32	UniProt Q925J9	-0.0453
33	UniProt Q91YN9	0.124
34	UniProt Q91V64	-0.174
35	UniProt Q921Z5	-0.202
36	UniProt Q8VHK9	0.0699
